For at least one compound, name, drawing or mass did not settle the structure.
Assay: Osmotic pressure and osmolality of solutions of identical iodine concentration (300 mg. Iodine/ml.)
Type: physicochemical
Conditions: at 37° C.
Excerpt: The novel compounds are distinguished from other compounds by a lower diffusibility on account of their size.
Concentration, Osmotic Pressure, and Osmolality of Solutions of Identical

CN(CC(O)CO)C(=O)c1c(I)c(C(=O)N(C)CC(O)CO)c(I)c(N(C)C(=O)COCC(=O)N(C)c2c(I)c(C(=O)N(C)CC(O)CO)c(I)c(C(=O)N(C)CC(O)CO)c2I)c1I (centres unmarked) [Example 8, Oxaglutaric Acid bis[3,5-bis(2,3-Dihydroxypropyl-N-methylcarbamoyl)-2,4,6-triiodo-N-methylanilide]]
Osmolality: 224 mOsm/kg . H2 O
Osmotic Pressure: 5.7 at.

— patent US4239747A, “Dicarboxylic acid bis(3,5-dicarbamoyl-2,4,6-triiodoanilides) useful as x-ray contrast agents” (Schering Aktiengesellschaft, priority 1976, dated 1980)
